Assay [1] has as its target aprataxin FHA domain (residues 1-105). Put plainly: ITC; peptide injected (30 x 10 ul) into FHA domain in the cell; 22 °C; 50 mM HEPES pH 7.5, 150 mM NaCl, 5 mM β-mercaptoethanol; XRCC1 peptides 1 mM into 100 μM protein, XRCC4 peptides 300 μM into 30 μM protein; single-site binding model; both purified.
The target in assay [2] is aprataxin FHA domain R42A (residues 1-105). The description is as above.

These are yes or no findings as the source states them, for the method shown. Binding can be weak; no strength is given.

For YAGSTDENTDSEEHQ (phosphothreonine at 519; C-terminal amide) [XRCC1 515-529 peptide phosphorylated on Thr519], the binding result in assay [1] is on record as “binds”.

YDESTDEES (phosphothreonine at 233; C-terminal amide) [XRCC4 229-237 peptide phosphorylated on Thr233]: in assay [1], the binding result is recorded as “binds”.

Regarding YAGSTDENTDSEEHQ (phosphoserine at 518; phosphothreonine at 519; C-terminal amide) [XRCC1 515-529 peptide phosphorylated on Ser518 and Thr519], the binding result in assay [1] and in assay [2] was “binds” each time.

Consider YAGSTDENTDSEEHQ (phosphothreonine at 523; C-terminal amide) [XRCC1 515-529 peptide phosphorylated solely on Thr523], for which the binding entry in assay [1] is given as “binds”.

In the case of YDESTDEES (phosphoserine at 232; phosphothreonine at 233; C-terminal amide) [XRCC4 229-237 peptide phosphorylated on Ser232 and Thr233], the binding result in assay [1] is “binds”.

For the origin of these results see publication PMC4655838, “Versatility in phospho-dependent molecular recognition of the XRCC1 and XRCC4 DNA-damage scaffolds by aprataxin-family FHA domains” (DNA Repair, 2015).
